# Test results: PubChem BioAssay AID1671190 (National Center for Advancing Translational Sciences (NCATS), 2021)
# Chains of the proteins cited; added tags and fusions are not shown.
# UniProt P18054, whole entry, looked up: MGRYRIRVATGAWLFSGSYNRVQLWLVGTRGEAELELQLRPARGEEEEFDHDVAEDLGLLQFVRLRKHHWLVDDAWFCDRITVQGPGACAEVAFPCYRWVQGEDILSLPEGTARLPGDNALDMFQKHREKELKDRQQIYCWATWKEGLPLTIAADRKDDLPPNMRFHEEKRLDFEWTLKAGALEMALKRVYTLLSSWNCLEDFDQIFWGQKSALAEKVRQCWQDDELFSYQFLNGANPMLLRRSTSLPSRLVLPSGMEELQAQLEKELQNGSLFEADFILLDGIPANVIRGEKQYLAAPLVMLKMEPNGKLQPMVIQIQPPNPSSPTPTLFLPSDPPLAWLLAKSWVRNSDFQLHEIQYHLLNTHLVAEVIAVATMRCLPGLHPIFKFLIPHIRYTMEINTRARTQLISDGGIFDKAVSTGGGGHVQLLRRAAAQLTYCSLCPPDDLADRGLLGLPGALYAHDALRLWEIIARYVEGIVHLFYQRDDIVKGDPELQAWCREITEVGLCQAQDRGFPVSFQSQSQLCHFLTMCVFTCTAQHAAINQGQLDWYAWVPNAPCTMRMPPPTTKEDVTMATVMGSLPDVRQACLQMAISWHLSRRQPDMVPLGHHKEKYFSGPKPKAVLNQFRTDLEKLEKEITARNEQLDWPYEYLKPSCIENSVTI
# Where “and” joins values, the source holds several entries; their conditions need not be identical. Equal entries are not always repeated. The whole screen tested about 580,000 compounds, of which about 6,100 (1.1%) were called active. Inconclusive means that the source gave no clear call. Such entries were picked first, then a sample of the others. Calls come from the whole dose curve; as a rule, active = well fitted inhibition curve with a large enough effect; inconclusive = small, poorly fitted or top-dose-only effect, or another doubt; inactive = no such curve, though single readings can be large or run the other way. Potencies beside an inconclusive call are fits to weak or partial responses and may not hold up.
# Biological target: Polyunsaturated fatty acid lipoxygenase ALOX12 (Homo sapiens) (UniProt P18054)
# Assay: Primary qHTS assay for inhibitors of human arachidonate 12S-lipoxygenase (ALOX12): Round 2
# Details: purified 12hLO, xylenol orange hydroperoxide absorbance; activity change, negative = inhibition: at 108 µM (top of the series) unless noted
# Method in brief: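 Hydroperoxide product was detected by ferrous iron/xylenol orange as the 573 to 405 nm absorbance ratio. Arachidonic acid at 40 uM (final) was turned over for 30 min at room temperature by 150 nM human 12hLO, pH 7.0 Hepes buffer, after 15 min compound preincubation.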
# % is set by controls: 0 for no effect and ±100 for the full control effect; potency is the fitted concentration of half-maximal effect.
SMILES,Potency,"activity change, negative = inhibition"
COC(=O)c1c(NC(=O)CSc2nc(-c3ccco3)cc(C(F)(F)F)n2)sc2c1CCCC2,"inconclusive: 31.6 µM [inhibitor, partial curve]",
O=S(=O)(Nc1cccc(-c2cn3c(n2)SCC3)c1)c1ccccc1F,"inconclusive: 44.7 µM [inhibitor, partial curve, poor fit]",
CN(CC(=O)NC1CC1)C(=O)Cc1cccc(C(F)(F)F)c1,,inactive: 21.9%
O=C1CC(N2CCN(Cc3ccccc3)CC2)C(=O)N1CCc1ccccc1 (stereo not given),,inactive: 0.106%
CCOC(=O)c1ccc(NC(=O)N2CCN(Cc3nc(-c4ccccc4)oc3C)CC2)cc1,"inconclusive: 44.7 µM [inhibitor, partial curve, poor fit]",
COC(=O)c1sccc1NC(=O)Nc1ccccc1Cl,,inactive: -9.51%
COCCCNC(=O)C1c2ccccc2C(=O)N(C2CCCCC2)C12CCCCC2 (stereo not given),,inactive: 52.2%
Cc1ccc(-n2nc3c(c2NC(=O)/C=C\c2ccc4c(c2)OCO4)CSC3)c(C)c1,,inactive: -15.3%
CCS(=O)(=O)N1CC(=O)N(c2ccc(C(C)C)cc2)C(C)(C(=O)NCc2ccc(F)cc2)C1 (stereo not given),"inconclusive: 44.7 µM [inhibitor, partial curve, poor fit]",
COc1cccc(C(=O)NCCS(=O)(=O)NCc2ccco2)c1,"inconclusive: 7.94 µM [inhibitor, full curve, poor fit]",
COc1ccc(/C(O)=C2/C(=O)C(=O)N(Cc3cccnc3)C2c2ccccn2)cc1 (stereo not given),"inconclusive: 7.08 µM [inhibitor, full curve, poor fit]",
CCOc1ccc(-c2noc(-c3ccncc3)n2)cc1OCC,,inactive: 0%
COc1cc(N=Nc2ccc(Br)cc2)cc(C=O)c1O,active: 3.16 µM,
CCCCC[n+]1cccc2c3ccccc3ccc21,active: 44.7 µM,
C=CCNC(=O)[C@@]1(Sc2ccc(OC)cc2)CC(=O)N[C@@H]1c1ccc(OC)cc1,"inconclusive: 79.4 µM [inhibitor, single point]",
Cc1[nH]c(C)c2c(=O)[nH]ncc12,"inconclusive: 100 µM [inhibitor, partial curve, poor fit]",
Cc1c(C(=O)O)oc2ccc(S(=O)(=O)NCCC3=CCCCC3)cc12,"inconclusive: 50.1 µM [inhibitor, partial curve, poor fit]",
Cc1cc(C)c2oc(=O)cc(CN3CCN(Cc4ccc5c(c4)OCO5)CC3)c2c1,"inconclusive: 70.8 µM [inhibitor, single point]",
O=C(/C=C/c1ccco1)Nc1ccc(S(=O)(=O)N2CCOCC2)cc1,"inconclusive: 0.562 µM [inhibitor, full curve, poor fit]",
O=C1CCSc2ccc(C(=O)NOC3CCCCO3)cc2N1 (stereo not given),,inactive: -26.7%
Cc1ccc(NC(=O)CSc2nnc(Cc3cccn3C)n2-c2ccc(F)cc2)c(C)c1,,inactive: -2.09%
CCn1c(NC(=O)Nc2cccc(C)c2C)cc2sccc21,"inconclusive: 35.5 µM [inhibitor, partial curve, poor fit]",
O=C(CCC(=O)N1CCCCCC1)Nc1ccc2nc(NC(=O)c3ccccc3)sc2c1,"inconclusive: 50.1 µM [inhibitor, partial curve, poor fit]",
CCNC(=O)Nc1nc2ccccc2s1,,inactive: 7.44%

SMILES,Potency,"activity change, negative = inhibition"
COc1cccc(CNc2ccc(N3CCOCC3)c(C(=O)O)c2)c1,"inconclusive: 25.1 µM [inhibitor, single point]",
CCc1noc2nc(C)n(CC(=O)O)c(=O)c12,"inconclusive: 44.7 µM [inhibitor, full curve, poor fit]",
O=C(CSc1ccc(Br)c2cccc(Cl)c12)Nc1ccc(S(=O)(=O)Nc2nccs2)cc1,,inactive: 11.7%
CCOC(=O)Cn1cc2c(c1-c1ccc(Cl)cc1)c(=O)n(C)c(=O)n2C,"inconclusive: 8.91 µM [inhibitor, full curve, poor fit]",
CC1CN(CCCOc2ccc([N+](=O)[O-])cc2)CC(C)O1 (stereo not given),"inconclusive: 2.51 µM [inhibitor, full curve, poor fit]",
CCS(=O)(=O)c1ccccc1C(=O)N(Cc1cccnc1)c1nc2cc(C)c(C)cc2s1,"inconclusive: 15.8 µM [inhibitor, full curve, poor fit]",
Cc1ccc(CNc2oc(Cc3ccccc3)nc2C#N)cc1,"inconclusive: 39.8 µM [inhibitor, partial curve, poor fit]",
c1ccc(-c2ccc3ncc(Nc4ccc(N5CCOCC5)cc4)n3n2)cc1,"inconclusive: 3.98 µM [inhibitor, full curve, poor fit]",
COC(=O)C[C@H]1c2cc(C(F)(F)F)ccc2S(=O)(=O)N1C1CCCC1,,inactive: 3.87%
CC(=O)c1ccc(C(=O)N(C)C(C)c2ccc(Cl)cc2)s1 (stereo not given),"inconclusive: 35.5 µM [inhibitor, partial curve]",
CCOc1ccc(CN2CCN(S(=O)(=O)c3ccc(NC(C)=O)cc3)CC2)cc1,,inactive: -2.79%
O=C(NNC(=O)c1ccc(O)cc1O)c1ccc(Cl)cc1,"inconclusive: 7.08 µM [inhibitor, partial curve, poor fit]",
COc1ccc(S(=O)(=O)NCCOc2cccc3cccnc23)cc1OC,,inactive: -14.7%
COCCn1c(SCC(=O)Nc2ccccc2F)nc2c([nH]c3ccccc32)c1=O,"inconclusive: 70.8 µM [inhibitor, partial curve, poor fit]",
CC1Cc2[nH]c(=S)[nH]c(=O)c2C(c2ccc(F)cc2)O1 (stereo not given),"inconclusive: 25.1 µM [inhibitor, partial curve, poor fit]",
NC(=S)NCc1cccnc1,,inactive: -22.7%
O=c1cc(-c2ccncc2)oc2c(-c3ccccc3Oc3ccccc3)nccc12,active: 31.6 µM,
CC1=NNC(=O)/C1=C\c1cn(-c2ccccc2)nc1-c1ccccc1,"inconclusive: 7.08 µM [inhibitor, full curve]",
CCC(C)C(=O)Nc1ccc(N2CCCCC2)c2ccncc12 (stereo not given),,inactive: 6.51%
O=C(O)c1cc(=O)[nH]c(=O)[nH]1,"inconclusive: 1.61 µM [inhibitor, full curve, poor fit] and inconclusive: 432 nM [inhibitor, full curve, poor fit]",
COc1ccc(-c2noc(CN(C(=O)c3ccc4c(c3)OCO4)C(C)C)n2)cc1,"inconclusive: 44.7 µM [inhibitor, partial curve, poor fit]",
COc1cc(OC)cc(C(=O)N[C@H](C(=O)NC2=NCCS2)C(C)C)c1,"inconclusive: 28.2 µM [inhibitor, partial curve, poor fit]",
COC(=O)C(Sc1nc(C)cc(C)c1C#N)c1ccccc1 (stereo not given),,inactive: -9.86%
S=c1sc2c(s1)SC1c3ccccc3CC1S2 (stereo not given),active: 15.8 µM,

SMILES,Potency,"activity change, negative = inhibition"
CCCSc1cc(N2CCN(C)CC2)nc(-c2ccc(OC)cc2)n1,,inactive: -74%
CC(=O)Nc1ccc(NC(=O)CCC(=O)Oc2ccc(C)cc2)cc1,"inconclusive: 56.2 µM [inhibitor, single point]",
CC12CCC(C(=O)NNc3ccccc3)(C(=O)C1=O)C2(C)C (stereo not given),"inconclusive: 50.1 µM [inhibitor, partial curve, poor fit]",
S=C(Nc1ccc(Br)cc1)N(Cc1ccccc1)Cc1ccccc1,"inconclusive: 56.2 µM [inhibitor, partial curve, poor fit]",
O=C(c1cc(NC2CCCCCC2)nc2ccccc12)N1CCOCC1,,inactive: -52.6%
COc1ccc2nc(NC(=O)c3ccc(S(=O)(=O)N4CCC(C)CC4)cc3)sc2c1,"inconclusive: 35.5 µM [inhibitor, partial curve, poor fit]",
CN(C)CC(C)(C)CNS(=O)(=O)c1cccc(Cl)c1Cl,"inconclusive: 79.4 µM [inhibitor, single point]",
Cc1cccc(C)c1OCCCCn1c(C2CC(=O)N(c3ccc(F)cc3)C2)nc2ccccc21 (stereo not given),active: 31.6 µM,
COc1ccc(/C=C/C(=O)c2ccc(C(=O)O)s2)cc1OC,active: 5.62 µM,
COc1cccc(C2/C(=C(\O)c3ccc(OC)c(OC)c3)C(=O)C(=O)N2c2cc(C)on2)c1 (stereo not given),"inconclusive: 39.8 µM [inhibitor, partial curve, poor fit]",
CCn1c(NCc2ccccc2)nc2c1c(=O)n(C)c(=O)n2C,"inconclusive: 141 µM [inhibitor, partial curve, poor fit]",
Cc1sc(NC(=O)c2cccs2)nc1-c1ccccc1,,inactive: -26.2%
O=S(=O)(NCCCn1ccc2ccccc21)c1ccc(F)c(F)c1,,inactive: 58%
Cc1cc(C)n(-c2nc3ccccc3nc2N2CCN(Cc3ccccc3)CC2)n1,,inactive: 14.2%
COc1cc(CNCc2ccc(Br)cc2)cc(OC)c1,"inconclusive: 0.398 µM [inhibitor, full curve, poor fit]",
C/C=C(\C)C(=O)NCCN1C2=NC[C@H](C)N2C[C@@H]1Cc1ccc(OC)cc1,,inactive: 0.755%
Cn1c(CCNC(=O)C2CCCCC2)nc2cc([N+](=O)[O-])ccc21,"inconclusive: 100 µM [inhibitor, single point]",
Cc1ccccc1NC(=O)Cn1c(=O)n(C)c2ccccc21,,inactive: -3.98%
CC1(C)N=C(SCC(=O)Nc2ccc(Cl)cc2)C(c2ccccc2)=N1,"inconclusive: 126 µM [inhibitor, single point]",
CCN1C(=O)c2cccc3c(S(=O)(=O)Nc4ccc(O)c(C(=O)O)c4)ccc1c23,"inconclusive: 112 µM [inhibitor, partial curve, poor fit]",
CN(C)C(=O)N(CCCN1CCOCC1)Cc1cccc2ccccc12,"inconclusive: 126 µM [inhibitor, single point]",
O=C(O)C1CC(C(=O)O)SS1 (stereo not given),"inconclusive: 44.7 µM [inhibitor, partial curve, poor fit]",

# At a glance, 4 of the compounds above.
SMILES,Potency,"activity change, negative = inhibition"
Cc1cccc(C)c1OCCCCn1c(C2CC(=O)N(c3ccc(F)cc3)C2)nc2ccccc21 (stereo not given),active: 31.6 µM,
COc1ccc(/C=C/C(=O)c2ccc(C(=O)O)s2)cc1OC,active: 5.62 µM,
COc1cccc(C2/C(=C(\O)c3ccc(OC)c(OC)c3)C(=O)C(=O)N2c2cc(C)on2)c1 (stereo not given),"inconclusive: 39.8 µM [inhibitor, partial curve, poor fit]",
CCn1c(NCc2ccccc2)nc2c1c(=O)n(C)c(=O)n2C,"inconclusive: 141 µM [inhibitor, partial curve, poor fit]",
